Results from article PMC10696399.
These are yes or no findings as the source states them, for the method shown. In cells and extracts the contact can be indirect. Some binding calls cover weakened binding; strength is not graded here. For part of these data: Sequences can lack the tags named with a protein.

The chains behind the UniProt entries cited, without tags or fusion partners.
UniProt P21454: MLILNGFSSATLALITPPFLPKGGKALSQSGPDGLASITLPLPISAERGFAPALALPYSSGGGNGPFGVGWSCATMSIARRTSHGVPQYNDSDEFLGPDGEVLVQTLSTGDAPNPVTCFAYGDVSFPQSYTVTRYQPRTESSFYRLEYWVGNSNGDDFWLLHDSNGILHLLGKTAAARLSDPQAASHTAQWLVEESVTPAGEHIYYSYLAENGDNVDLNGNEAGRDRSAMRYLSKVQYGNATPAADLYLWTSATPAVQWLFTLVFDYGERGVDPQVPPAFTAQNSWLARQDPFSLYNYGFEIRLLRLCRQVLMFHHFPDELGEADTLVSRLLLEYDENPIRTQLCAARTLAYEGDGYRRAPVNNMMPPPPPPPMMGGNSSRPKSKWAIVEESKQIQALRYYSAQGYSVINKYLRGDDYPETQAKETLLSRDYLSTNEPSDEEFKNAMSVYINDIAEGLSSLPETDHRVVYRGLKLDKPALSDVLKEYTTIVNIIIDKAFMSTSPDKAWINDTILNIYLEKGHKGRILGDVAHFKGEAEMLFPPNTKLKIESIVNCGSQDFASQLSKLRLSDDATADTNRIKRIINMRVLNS
UniProt Q00610: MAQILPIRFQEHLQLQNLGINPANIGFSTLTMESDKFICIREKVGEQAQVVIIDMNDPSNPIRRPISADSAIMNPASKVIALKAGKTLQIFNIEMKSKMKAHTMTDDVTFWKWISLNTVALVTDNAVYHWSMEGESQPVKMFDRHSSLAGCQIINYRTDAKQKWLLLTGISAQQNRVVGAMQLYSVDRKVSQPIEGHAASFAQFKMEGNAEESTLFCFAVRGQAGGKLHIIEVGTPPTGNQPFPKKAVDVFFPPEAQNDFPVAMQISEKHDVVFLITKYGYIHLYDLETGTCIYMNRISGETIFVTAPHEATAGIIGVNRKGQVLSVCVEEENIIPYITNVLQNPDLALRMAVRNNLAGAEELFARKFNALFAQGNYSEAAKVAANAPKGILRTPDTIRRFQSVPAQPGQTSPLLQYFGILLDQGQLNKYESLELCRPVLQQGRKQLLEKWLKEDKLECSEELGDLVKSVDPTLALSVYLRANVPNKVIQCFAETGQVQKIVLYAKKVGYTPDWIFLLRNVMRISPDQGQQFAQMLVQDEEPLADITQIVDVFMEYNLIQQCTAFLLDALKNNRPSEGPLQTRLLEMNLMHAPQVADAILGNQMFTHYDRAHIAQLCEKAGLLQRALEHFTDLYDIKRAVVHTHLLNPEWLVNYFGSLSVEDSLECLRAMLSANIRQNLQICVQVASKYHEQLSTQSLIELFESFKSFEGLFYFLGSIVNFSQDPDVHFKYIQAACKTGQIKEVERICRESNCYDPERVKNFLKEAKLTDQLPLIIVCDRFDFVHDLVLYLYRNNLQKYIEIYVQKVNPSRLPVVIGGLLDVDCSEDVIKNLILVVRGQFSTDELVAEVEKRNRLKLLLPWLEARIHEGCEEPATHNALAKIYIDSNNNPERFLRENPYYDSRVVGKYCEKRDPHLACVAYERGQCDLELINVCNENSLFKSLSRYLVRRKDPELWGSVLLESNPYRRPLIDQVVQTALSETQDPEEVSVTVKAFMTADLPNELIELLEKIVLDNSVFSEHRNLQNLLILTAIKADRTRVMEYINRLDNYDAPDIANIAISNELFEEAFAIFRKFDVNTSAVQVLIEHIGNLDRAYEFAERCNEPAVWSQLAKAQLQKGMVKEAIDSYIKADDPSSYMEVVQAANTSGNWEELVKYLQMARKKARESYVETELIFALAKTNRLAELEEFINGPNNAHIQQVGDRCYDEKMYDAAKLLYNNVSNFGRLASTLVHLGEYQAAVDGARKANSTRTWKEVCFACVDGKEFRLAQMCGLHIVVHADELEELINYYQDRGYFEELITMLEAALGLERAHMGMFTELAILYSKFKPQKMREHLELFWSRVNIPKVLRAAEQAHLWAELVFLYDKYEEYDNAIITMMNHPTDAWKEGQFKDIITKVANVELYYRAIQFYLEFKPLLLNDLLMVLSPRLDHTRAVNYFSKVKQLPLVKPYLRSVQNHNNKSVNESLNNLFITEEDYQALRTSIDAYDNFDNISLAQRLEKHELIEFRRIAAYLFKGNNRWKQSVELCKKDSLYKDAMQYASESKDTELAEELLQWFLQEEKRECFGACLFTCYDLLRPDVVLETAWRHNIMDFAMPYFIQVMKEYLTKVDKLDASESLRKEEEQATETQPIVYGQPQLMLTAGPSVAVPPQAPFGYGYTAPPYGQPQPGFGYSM

Legend:
[1] = molecular target: HA-SpvB (S. Typhimurium strain SL1344) (UniProt P21454); assay: co-IP; FLAG-tagged AP-1 subunits or CHC cotransfected with or without HA-SpvB in 293T cells; lysates precipitated with beads coated with HA antibody; immunoblot
[2] = molecular target: FLAG-tagged CHC (human) (UniProt Q00610); assay: co-IP; GFP-SpvB or GFP-tagged truncation mutants cotransfected with FLAG-tagged AP-1 subunits or CHC in 293T cells; lysates precipitated with beads coated with FLAG antibody; immunoblot
[3] = molecular target: T1, FLAG-tagged SopD2 (S. Typhimurium strain SL1344) (UniProt Q8ZQC8); assay: co-IP; 293T cells transfected with FLAG-tagged SpvB, truncation mutants or SopD2; anti-FLAG immunoprecipitates probed with antibodies against endogenous CHC and AP-1γ
T1 sequence: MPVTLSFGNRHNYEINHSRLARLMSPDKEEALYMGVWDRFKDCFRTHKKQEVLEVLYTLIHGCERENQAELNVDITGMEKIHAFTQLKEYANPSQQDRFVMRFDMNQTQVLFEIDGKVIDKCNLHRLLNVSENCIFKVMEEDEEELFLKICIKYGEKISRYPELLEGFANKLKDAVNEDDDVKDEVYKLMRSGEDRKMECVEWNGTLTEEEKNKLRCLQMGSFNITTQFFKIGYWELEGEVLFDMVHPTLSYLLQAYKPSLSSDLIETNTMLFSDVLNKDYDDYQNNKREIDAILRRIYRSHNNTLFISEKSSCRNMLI

**Q.** How did the binding [1] turn out when “FLAG-tagged CHC (from UniProt Q00610 1-1675)” was run?
**A.** The binding was “binds”.

**Q.** GFP-SpvB (from UniProt P21454 1-591) was tested. Which binding [2] did it give?
**A.** Its binding is “binds”.

**Q.** Which binding [3] does the source give for “clathrin heavy chain (endogenous) (from UniProt Q00610 1-1675)” here?
**A.** The binding was “no binding”.
